Results on 39 compounds are retold here after PubChem BioAssay AID493014 (National Center for Advancing Translational Sciences (NCATS), 2011).

This test can be described thus: qHTS Assay to Find Inhibitors of Chronic Active B-Cell Receptor Signaling. The following applies: ABC-DLBCL IkBa-CBG/CBR reporter, luminescence ratio (green luciferase fused to IkBa over red control in TMD8 lymphoma cells), 4 h. In outline:
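Cell line TMD8 (human ABC DLBCL), stably expressing tet-inducible CBG68-IkBa fusion and CBR; IMDM/0.5% FBS; cpd up to 46 uM; dox induction, 4 h, 37C/5% CO2; dual luminescence; green/red ratio; MG132 control.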

Where [1] appears, read: measured here: IkBa-CBG green luminescence.
Where [2] appears, read: measured here: CBR red luminescence, cell number.

This is one part of the list. Further columns of the screen follow, without active or inactive calls. The list favours compounds with an active or inconclusive main result. The note in brackets gives the kind of curve behind each potency; many fits are weak.

As for `COc1cc2c(cc1OC)-c1cc(NC3CCCCC3)nc(=O)n1CC2`, the AC50 under setting [1] was 14.1 µM [falling, partial curve].
Turning to `COc1ccc(COC(=O)c2sc3nc4n(c(=O)c3c2C)CCC4)cc1`, under setting [2], the AC50 was 5.8 µM [rising, partial curve].
Still for that read-out and setting: in the case of `O=C(N/N=C/c1cc(Br)cs1)c1ccc2c(c1)OCCO2` it was 7.08 µM [falling, full curve, poor fit]; in that of `Cc1cccc(-n2ncc3c(NC4CCCCC4)ncnc32)c1`, 1.84 µM [falling, partial curve]; in that of `Cc1ccc(C2=NN(S(C)(=O)=O)C(c3ccc4c(c3)OCO4)C2)cc1` (configuration not stated), 18.4 µM [rising, partial curve, poor fit].
For the compound `CCOCCOCCC(C(=O)OCC)P(=O)(c1ccccc1)c1ccccc1` (configuration not stated), the AC50 under setting [2] is 4.11 µM [rising, full curve, poor fit].
`Cc1ccc2nc(CSc3nc(C)nc4c3oc3ccccc34)[nH]c2c1`: the AC50 under setting [2] is 29.1 µM [falling, single point].
With `COc1ccc(NC(=O)N(C)C[C@H]2Oc3ccc(NC(=O)c4ccncc4)cc3C(=O)N([C@H](C)CO)C[C@@H]2C)cc1`, the AC50 under setting [2] was 25.9 µM [rising, single point].
With `O=C(/C=C/c1ccccc1)Nc1sc2c(c1C(=O)O)CCC2`, the AC50 under setting [2] is 1.41 µM [falling, full curve].
On to `O=C(O)c1ccccc1S(=O)(=O)CC(=O)N1CCCCC1`, for which, under setting [2], the AC50 is 15.8 µM [rising, single point].
On the same count and under the same terms, in the case of `C/C(=N\Nc1ccc(Cl)c(C(=O)O)c1)c1cccc([N+](=O)[O-])c1` it was 10 µM [falling, partial curve]; in that of `CCOC(=O)C(=CNc1cc(C)nn1-c1ccccc1)C(=O)OCC`, 12.6 µM [falling, single point].
With `Cc1ccc(-c2cc(C(=O)N/N=C/C(Br)=C/c3ccccc3)n[nH]2)o1`, the AC50 under setting [1] is 25.1 µM [falling, single point].
As to `CC(OC(=O)c1n[nH]c2ccccc12)C(=O)NC1CCCCC1C` (configuration not stated), the AC50 under setting [2] is 18.4 µM [falling, partial curve].
As to `C=C1C2(C(=O)Nc3ccc(SC(F)F)cc3)CCC(C2)C1(C)C` (configuration not stated), the AC50 under setting [2] was 12.6 µM [rising, partial curve].
With `Cc1cc(C)c([N+](=O)[O-])cc1-c1ccc(/C=N/NC(=O)c2nonc2N)o1`, the AC50 under setting [2] is 29.1 µM [falling, partial curve, poor fit].
Same read-out and setting: to `Cc1ccc2cc3cc(C(=O)NCc4ccco4)oc3nc2c1` belongs 35.5 µM [falling, single point].
Turning to `CCN(CC)P(=O)(Nc1ccc(SC(F)F)cc1)c1ccc(N(C)C)cc1NC(=O)c1ccco1` (configuration not stated), the AC50 under setting [2] was 8.91 µM [falling, partial curve, poor fit].
Still for that read-out and setting: to `O=C(NCCSc1c[nH]c2ccccc12)c1c(F)cccc1F` belongs 11.2 µM [falling, single point]; to `CCC1CCCCN1CCCNC(=O)c1ccc2c(c1)N(Cc1ccc(F)cc1)C(=O)c1ccccc1S2=O` (configuration not stated), 17.8 µM [falling, partial curve, poor fit]; to `c1csc(CN2CCN(Cc3cccs3)C2c2cccs2)c1`, 1.46 µM [falling, full curve, poor fit].
`CN(C)c1oc(COc2ccc(F)cc2)nc1C#N`: under setting [2], the AC50 was 20.6 µM [rising, single point].
Take `S=C(c1ccc(-c2ccccc2Cl)o1)N1CCOCC1`: under setting [2], the concentration at half-maximal activity (AC50) is 23.1 µM [rising, partial curve, poor fit].
Take `CCn1c(SCC(=O)N2CCCc3ccccc32)nc2c1c(=O)n(C)c(=O)n2C`: the AC50 under setting [2] was 12.6 µM [falling, partial curve, poor fit].
Consider `CC1CN(C(=O)CCCN2C(=O)c3ccccc3C2=O)CC(C)O1` (configuration not stated), for which, under setting [2], the AC50 is 11.2 µM [rising, partial curve, poor fit].
Turning to `CCCc1cc(SCC(=O)Nc2c(C)n(C)n(-c3ccccc3)c2=O)n2c(nc3ccccc32)c1C#N`, the AC50 was 4.11 µM [falling, full curve] under setting [2] and 5.8 µM [rising, partial curve, poor fit] under setting [1].
For `O=c1c2cc3c(=O)n(CC4CCCO4)c(=O)c3cc2c(=O)n1CC1CCCO1` (configuration not stated), the AC50 under setting [2] is 29.1 µM [rising, single point].
Same read-out and setting: to `C#CCn1cc(/C=N/NC(=O)c2cc3ccccc3o2)c2ccccc21` belongs 29.1 µM [falling, single point].
On the same count and under the same terms, in the case of `COc1ccc(C2C(C(=O)c3ccco3)=C(O)C(=O)N2CCOCCO)cc1OC` (configuration not stated) it was 1.26 µM [falling, full curve].
In the case of `S=C(NNc1ccnc2cc(Cl)ccc12)Nc1ccccc1Cl`, the concentration at half-maximal activity (AC50) under setting [2] was 23.1 µM [falling, partial curve].
With `Cc1c(C(=O)O)sc2nc(CSc3nnc(-c4ccc(F)cc4)n3C)[nH]c(=O)c12`, under setting [2], the AC50 was 0.794 µM [rising, full curve, poor fit].
As to `COc1ccc(C(=O)n2c(N)nc3ccccc32)cc1OC`, under setting [2], the AC50 was 12.6 µM [falling, partial curve].
For `COc1ccc(CCNC(=O)COC(=O)/C=C/c2cc(OC)ccc2OC)cc1`, under setting [2], the AC50 is 29.1 µM [rising, single point].
Regarding `COC(=O)c1cc(CNC(=O)c2ccccc2OCc2c(C)noc2C)ccc1OC`, the AC50 under setting [2] was 17.8 µM [rising, single point].
Take `CCNc1nc(NCC)nc(OCCNS(=O)(=O)c2cc(C)ccc2C)n1`: the AC50 is 6.51 µM [falling, single point] under setting [2] and 4.11 µM [rising, partial curve, poor fit] under setting [1].
Take `Cc1nn(CCCC(=O)N2CCN(c3ccc(F)cc3)CC2)c(C)c1[N+](=O)[O-]`: under setting [2], the AC50 was 12.6 µM [falling, partial curve].
As to `COc1ccc(S(=O)(=O)N2CCCCC2)cc1NC(=O)c1ccc(OC)c(OC)c1`, the AC50 is 2.06 µM [rising, full curve, poor fit] under setting [2] and 18.4 µM [falling, partial curve, poor fit] under setting [1].
Take `CCOC(=O)Nc1ccc2c(c1)Nc1ccccc1S2`: the AC50 under setting [2] was 14.1 µM [falling, single point].
Same read-out and setting: in the case of `Cc1csc(NC(=O)CSc2nnc(Cn3c(=O)sc4ccccc43)n2-c2ccccc2)n1` it was 20 µM [falling, partial curve, poor fit].
